# Some of the results follow.
# Amino acid sequences for entries named in this document (tags omitted). A change or cut given only in a name is not applied to a line headed by its entry.
# UniProt Q86X83, whole entry, looked up: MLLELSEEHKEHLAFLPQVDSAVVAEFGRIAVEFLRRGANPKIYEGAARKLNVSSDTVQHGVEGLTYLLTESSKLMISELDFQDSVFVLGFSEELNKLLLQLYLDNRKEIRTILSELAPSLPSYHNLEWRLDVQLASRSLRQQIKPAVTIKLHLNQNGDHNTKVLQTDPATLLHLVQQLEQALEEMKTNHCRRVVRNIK
# UniProt O75976: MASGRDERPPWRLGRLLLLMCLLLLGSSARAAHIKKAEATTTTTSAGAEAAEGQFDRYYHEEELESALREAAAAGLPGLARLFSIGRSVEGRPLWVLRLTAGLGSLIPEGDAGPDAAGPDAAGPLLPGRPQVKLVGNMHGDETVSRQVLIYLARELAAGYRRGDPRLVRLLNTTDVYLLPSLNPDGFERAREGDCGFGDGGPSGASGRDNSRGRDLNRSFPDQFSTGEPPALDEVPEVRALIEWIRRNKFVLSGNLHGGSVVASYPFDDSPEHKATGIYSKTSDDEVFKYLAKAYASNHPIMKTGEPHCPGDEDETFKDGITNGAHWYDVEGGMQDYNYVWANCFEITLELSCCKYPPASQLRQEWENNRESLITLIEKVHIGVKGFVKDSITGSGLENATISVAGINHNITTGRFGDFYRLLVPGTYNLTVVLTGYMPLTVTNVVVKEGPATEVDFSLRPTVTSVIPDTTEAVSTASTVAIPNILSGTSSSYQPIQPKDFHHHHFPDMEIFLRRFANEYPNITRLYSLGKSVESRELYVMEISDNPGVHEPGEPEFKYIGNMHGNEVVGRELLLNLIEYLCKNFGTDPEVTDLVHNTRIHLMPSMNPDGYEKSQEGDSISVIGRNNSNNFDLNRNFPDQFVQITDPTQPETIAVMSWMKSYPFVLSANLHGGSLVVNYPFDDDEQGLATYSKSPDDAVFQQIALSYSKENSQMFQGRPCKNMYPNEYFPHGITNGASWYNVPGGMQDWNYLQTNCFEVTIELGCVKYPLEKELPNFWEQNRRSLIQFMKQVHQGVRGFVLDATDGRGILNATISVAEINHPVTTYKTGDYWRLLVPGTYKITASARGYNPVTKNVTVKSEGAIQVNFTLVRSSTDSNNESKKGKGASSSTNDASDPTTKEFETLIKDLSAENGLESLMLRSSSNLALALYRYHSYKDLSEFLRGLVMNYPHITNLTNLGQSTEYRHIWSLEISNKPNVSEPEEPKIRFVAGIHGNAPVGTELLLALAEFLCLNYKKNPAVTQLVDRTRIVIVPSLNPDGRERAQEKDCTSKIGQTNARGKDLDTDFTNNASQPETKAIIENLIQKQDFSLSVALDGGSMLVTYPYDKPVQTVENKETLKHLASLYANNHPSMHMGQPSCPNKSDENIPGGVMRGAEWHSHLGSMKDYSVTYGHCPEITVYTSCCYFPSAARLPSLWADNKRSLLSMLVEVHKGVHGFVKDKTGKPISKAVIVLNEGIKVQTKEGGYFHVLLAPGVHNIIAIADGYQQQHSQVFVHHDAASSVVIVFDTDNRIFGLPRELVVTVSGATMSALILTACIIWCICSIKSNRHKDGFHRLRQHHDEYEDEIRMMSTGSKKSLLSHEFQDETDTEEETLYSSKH
# UniProt P10606, whole entry, looked up: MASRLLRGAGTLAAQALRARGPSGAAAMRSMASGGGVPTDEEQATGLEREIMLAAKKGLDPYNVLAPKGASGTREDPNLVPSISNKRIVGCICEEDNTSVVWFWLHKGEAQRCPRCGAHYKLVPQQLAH
# UniProt P68400, whole entry, looked up: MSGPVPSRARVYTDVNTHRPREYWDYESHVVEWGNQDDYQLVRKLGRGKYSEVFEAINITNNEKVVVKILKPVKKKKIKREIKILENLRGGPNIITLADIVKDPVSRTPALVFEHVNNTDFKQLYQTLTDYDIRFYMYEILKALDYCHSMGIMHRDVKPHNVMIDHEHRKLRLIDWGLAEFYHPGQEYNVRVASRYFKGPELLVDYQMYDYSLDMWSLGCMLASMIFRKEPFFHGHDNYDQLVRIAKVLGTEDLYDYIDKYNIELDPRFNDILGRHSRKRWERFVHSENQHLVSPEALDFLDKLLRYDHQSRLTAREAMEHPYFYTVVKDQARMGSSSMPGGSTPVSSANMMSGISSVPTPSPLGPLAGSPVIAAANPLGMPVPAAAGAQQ
# UniProt P46108: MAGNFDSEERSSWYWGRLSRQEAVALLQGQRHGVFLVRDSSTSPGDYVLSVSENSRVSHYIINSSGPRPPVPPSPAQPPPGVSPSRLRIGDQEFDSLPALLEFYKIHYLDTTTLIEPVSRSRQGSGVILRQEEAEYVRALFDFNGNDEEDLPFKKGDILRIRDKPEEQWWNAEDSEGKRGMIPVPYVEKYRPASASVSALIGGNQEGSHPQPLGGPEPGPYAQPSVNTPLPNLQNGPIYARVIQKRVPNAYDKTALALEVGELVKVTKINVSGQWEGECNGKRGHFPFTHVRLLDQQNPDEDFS
# UniProt O75208: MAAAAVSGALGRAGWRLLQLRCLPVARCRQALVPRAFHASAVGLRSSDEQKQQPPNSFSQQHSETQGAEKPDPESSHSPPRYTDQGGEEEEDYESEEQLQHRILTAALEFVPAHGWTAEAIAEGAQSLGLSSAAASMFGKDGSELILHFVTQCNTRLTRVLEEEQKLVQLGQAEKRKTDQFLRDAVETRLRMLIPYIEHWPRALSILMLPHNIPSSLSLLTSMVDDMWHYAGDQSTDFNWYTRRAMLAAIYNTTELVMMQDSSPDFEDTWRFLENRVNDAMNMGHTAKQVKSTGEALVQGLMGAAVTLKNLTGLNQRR
# UniProt Q5RI15: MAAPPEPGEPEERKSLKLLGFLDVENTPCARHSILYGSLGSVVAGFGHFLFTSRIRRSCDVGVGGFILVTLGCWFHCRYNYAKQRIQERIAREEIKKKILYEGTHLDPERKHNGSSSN
# UniProt Q92828: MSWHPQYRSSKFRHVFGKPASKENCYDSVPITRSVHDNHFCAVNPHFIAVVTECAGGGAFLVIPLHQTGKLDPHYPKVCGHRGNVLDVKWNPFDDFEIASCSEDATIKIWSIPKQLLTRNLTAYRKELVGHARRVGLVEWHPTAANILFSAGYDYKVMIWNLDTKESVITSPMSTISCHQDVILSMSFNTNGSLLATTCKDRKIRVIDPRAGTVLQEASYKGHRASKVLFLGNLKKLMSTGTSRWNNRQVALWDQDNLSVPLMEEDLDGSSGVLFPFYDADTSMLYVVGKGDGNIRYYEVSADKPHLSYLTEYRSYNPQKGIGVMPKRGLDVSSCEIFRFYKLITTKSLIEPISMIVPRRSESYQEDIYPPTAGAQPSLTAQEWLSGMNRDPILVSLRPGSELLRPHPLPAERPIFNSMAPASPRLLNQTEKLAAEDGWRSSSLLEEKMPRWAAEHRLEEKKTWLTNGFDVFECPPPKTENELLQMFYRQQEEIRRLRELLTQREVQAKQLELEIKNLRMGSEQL
# UniProt Q7Z4G1, whole entry, looked up: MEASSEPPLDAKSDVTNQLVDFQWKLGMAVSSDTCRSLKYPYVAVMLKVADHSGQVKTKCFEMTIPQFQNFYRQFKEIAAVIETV
# UniProt P21964: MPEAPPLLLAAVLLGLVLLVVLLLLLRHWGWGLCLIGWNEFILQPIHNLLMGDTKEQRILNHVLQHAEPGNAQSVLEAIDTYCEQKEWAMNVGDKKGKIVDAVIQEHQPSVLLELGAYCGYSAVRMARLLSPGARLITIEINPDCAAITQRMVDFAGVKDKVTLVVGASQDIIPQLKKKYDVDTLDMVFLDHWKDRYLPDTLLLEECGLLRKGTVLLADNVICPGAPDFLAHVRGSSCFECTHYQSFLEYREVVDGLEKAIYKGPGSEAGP
# UniProt P19784, whole entry, looked up: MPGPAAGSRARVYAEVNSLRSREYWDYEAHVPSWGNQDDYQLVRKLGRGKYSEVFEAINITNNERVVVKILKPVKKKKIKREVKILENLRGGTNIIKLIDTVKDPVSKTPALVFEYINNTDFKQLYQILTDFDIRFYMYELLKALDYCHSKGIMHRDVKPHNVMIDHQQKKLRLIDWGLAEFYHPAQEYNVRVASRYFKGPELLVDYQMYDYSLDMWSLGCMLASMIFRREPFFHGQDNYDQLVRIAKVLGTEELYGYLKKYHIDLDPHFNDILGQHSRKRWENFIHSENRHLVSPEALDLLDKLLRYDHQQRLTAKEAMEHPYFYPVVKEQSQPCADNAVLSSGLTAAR
# UniProt P50416: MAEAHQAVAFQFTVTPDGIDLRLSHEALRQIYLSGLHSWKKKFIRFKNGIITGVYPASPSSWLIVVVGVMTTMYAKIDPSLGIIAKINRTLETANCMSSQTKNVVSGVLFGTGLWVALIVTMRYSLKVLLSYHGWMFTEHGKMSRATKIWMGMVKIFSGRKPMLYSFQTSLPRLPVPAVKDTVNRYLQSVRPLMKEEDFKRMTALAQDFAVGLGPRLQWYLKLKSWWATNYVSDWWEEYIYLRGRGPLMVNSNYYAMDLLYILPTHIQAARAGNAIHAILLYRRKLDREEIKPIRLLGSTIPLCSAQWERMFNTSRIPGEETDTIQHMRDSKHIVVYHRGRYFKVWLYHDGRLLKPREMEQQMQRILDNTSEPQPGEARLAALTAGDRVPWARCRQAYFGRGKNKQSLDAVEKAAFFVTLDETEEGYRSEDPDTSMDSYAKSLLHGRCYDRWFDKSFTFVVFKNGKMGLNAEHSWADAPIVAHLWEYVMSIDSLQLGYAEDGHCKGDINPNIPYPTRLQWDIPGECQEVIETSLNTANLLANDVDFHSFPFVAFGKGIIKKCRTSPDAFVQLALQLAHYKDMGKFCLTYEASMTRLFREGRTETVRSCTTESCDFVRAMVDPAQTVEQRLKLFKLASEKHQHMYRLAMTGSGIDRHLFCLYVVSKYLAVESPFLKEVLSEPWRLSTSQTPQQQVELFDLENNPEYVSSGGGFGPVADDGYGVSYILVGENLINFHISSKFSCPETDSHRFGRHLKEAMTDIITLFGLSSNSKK
# UniProt Q9UJA2: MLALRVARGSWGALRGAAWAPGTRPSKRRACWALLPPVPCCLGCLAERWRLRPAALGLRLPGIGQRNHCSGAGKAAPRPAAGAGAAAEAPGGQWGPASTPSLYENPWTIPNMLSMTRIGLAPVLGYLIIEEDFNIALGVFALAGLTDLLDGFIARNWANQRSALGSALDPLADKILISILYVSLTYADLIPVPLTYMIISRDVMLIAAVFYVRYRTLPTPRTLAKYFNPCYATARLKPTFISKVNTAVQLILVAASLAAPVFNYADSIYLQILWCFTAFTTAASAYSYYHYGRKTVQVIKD
# UniProt Q9UNS2: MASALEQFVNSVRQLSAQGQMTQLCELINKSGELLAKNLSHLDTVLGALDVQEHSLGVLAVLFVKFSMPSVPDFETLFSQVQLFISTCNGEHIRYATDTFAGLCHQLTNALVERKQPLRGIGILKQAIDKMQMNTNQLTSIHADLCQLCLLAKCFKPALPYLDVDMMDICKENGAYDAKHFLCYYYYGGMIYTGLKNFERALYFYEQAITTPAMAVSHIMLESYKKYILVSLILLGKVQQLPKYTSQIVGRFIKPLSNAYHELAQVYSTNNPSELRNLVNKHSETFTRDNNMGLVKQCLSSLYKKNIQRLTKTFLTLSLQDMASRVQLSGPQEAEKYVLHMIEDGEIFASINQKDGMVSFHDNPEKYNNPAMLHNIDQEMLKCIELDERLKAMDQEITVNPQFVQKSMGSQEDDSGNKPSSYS
# UniProt P12109: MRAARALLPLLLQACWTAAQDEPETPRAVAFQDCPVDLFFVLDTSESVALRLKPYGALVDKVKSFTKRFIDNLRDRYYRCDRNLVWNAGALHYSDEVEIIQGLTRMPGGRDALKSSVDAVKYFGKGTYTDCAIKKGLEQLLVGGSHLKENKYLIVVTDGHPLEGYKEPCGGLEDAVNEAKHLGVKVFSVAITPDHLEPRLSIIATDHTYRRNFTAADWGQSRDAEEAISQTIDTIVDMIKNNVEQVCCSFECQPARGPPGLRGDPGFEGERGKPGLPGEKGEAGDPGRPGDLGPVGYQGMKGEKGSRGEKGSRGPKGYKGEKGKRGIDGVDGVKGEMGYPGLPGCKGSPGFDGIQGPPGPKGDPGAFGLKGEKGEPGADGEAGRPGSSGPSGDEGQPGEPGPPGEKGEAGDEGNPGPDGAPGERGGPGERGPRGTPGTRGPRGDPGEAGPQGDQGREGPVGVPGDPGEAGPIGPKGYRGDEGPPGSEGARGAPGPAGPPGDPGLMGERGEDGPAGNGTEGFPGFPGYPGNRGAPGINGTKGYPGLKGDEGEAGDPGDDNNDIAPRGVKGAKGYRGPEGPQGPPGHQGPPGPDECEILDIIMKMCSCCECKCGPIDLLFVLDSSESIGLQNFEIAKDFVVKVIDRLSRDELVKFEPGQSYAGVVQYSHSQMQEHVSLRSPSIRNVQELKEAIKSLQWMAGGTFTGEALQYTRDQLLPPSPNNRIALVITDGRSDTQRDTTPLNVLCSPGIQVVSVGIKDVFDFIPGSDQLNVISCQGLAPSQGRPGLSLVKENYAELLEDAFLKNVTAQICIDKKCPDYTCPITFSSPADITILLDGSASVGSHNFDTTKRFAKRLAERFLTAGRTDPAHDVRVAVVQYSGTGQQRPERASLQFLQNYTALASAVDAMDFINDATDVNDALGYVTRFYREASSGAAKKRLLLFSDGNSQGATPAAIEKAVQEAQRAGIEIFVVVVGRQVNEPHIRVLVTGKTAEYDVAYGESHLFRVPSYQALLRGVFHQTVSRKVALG
# Compound: CN1CCC(CNc2ccc3ncc(-c4cccc(OC(F)(F)F)c4)n3n2)CC1
# Experiment: log2 fold change, soluble protein after heating vs DMSO (PISA); higher = thermal stabilisation; K562 cells, 10 uM, 30 min; active = over 0.2 and 3.5 SD of the protein, either way, in both replicates (recomputed)
# Method in brief: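 K562 cells at 2×10^6 cells/mL were treated for 30 min with 10 μM compound, and aliquots were heated for 3 min over 48°C-58°C before pooling. Extraction used PBS with 0.5% NP-40 at 4°C, and soluble protein was the supernatant after 21,000xg for 90 min, measured by TMTpro 16plex LC-MS/MS with channel sums equalised. Thermal stability values, relative to control samples and from duplicates, are log2 fold changes.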
row,Target,log2 fold change
1,CPSF1 (UniProt Q10570),inactive: 0.165
2,COPS4 (UniProt Q9BT78),inactive: -0.007
3,COMMD2 (UniProt Q86X83),inactive: -0.209
4,COMP (UniProt P49747),inactive: -0.089
5,CPD (UniProt O75976),active: -0.399
6,CRCP (UniProt O75575),inactive: 0.089
7,COX5A (UniProt P20674),inactive: 0.269
8,COX5B (UniProt P10606),active: 0.541
9,CSNK2B (UniProt P67870),inactive: -0.176
10,CPT2 (UniProt P23786),active: -0.613
11,CSNK2A1 (UniProt P68400),inactive: -0.233
12,CRK (UniProt P46108),inactive: -0.022
13,COQ9 (UniProt O75208),inactive: -0.135
14,COX20 isoform 2 (UniProt Q5RI15),inactive: 0.081
15,CORO2A (UniProt Q92828),inactive: -0.096
16,COMMD4 (UniProt Q9H0A8),inactive: 0.016
17,COMMD6 isoform 2 (UniProt Q7Z4G1),inactive: -0.211

# In another format: results already given
row | Target | log2 fold change
4 | COMP (UniProt P49747) | inactive: -0.089
5 | CPD (UniProt O75976) | active: -0.399
6 | CRCP (UniProt O75575) | inactive: 0.089
7 | COX5A (UniProt P20674) | inactive: 0.269
8 | COX5B (UniProt P10606) | active: 0.541
9 | CSNK2B (UniProt P67870) | inactive: -0.176
10 | CPT2 (UniProt P23786) | active: -0.613
11 | CSNK2A1 (UniProt P68400) | inactive: -0.233
12 | CRK (UniProt P46108) | inactive: -0.022
13 | COQ9 (UniProt O75208) | inactive: -0.135

# Following part.

row,Target,log2 fold change
1,CSK (UniProt P41240),inactive: -0.147
2,COMT (UniProt P21964),inactive: 0.142
3,CRLF3 (UniProt Q8IUI8),active: -0.268
4,CSNK2A2 (UniProt P19784),active: -0.244
5,CPT1A (UniProt P50416),active: 0.333
6,COMMD1 (UniProt Q8N668),inactive: 0.295
7,CS (UniProt O75390),active: -0.222
8,CRLS1 (UniProt Q9UJA2),inactive: 0.09
9,COPS3 (UniProt Q9UNS2),inactive: -0.03
10,COPS3 isoform 2 (UniProt Q9UNS2),inactive: -0.124
11,COL6A1 (UniProt P12109),inactive: -0.218
12,CRYM-AS1 (UniProt A6NIL9),active: -0.714
13,CPEB4 (UniProt Q17RY0),inactive: -0.051
14,CSE1L (UniProt P55060),inactive: -0.181
15,COL6A3 (UniProt P12111),inactive: 0.093
16,CPSF7 isoform 3 (UniProt Q8N684),inactive: 0.006

# Reference: the supplement of paper PMC10849652
